# From PubChem BioAssay AID540276 (National Center for Advancing Translational Sciences (NCATS), 2011)
# Several values for one entry are separate records, joined by “and”; a condition that tells them apart may be missing. Equal entries are not always repeated. The campaign covered roughly 300,000 compounds. About 5,400 (1.8%) were called active. This list was built around the results that the source calls inconclusive (neither active nor inactive); the mix of calls is not that of the screen. Calls follow the shape of the full dose curve; tested in HEK293 cells. A potency beside an inconclusive call is a rough fit, not a confirmed value.
# Assay: qHTS for inhibitors of binding or entry into cells for Marburg Virus
# Conditions: Marburg virus pseudotyped entry inhibition, cell reporter; series mostly up to 37.8 µM
# Potency is read from the fitted curve at half-maximal effect.
row,Compound,Potency
1,CCCCN(CCCC)CCNC(=O)CN1C(=O)COc2ccc(S(=O)(=O)N3CCC(C)CC3)cc21,"inconclusive: 6.31 µM [inhibitor, partial curve, poor fit]"
2,COC(=O)[C@H](C)NC(=O)NC1CCN(Cc2ccccc2)CC1,"inconclusive: 18.3 µM [inhibitor, single point]"
3,Cc1ccccc1NC(=O)CCNC(=O)Cn1ccc2ccccc2c1=O,inactive
4,O=C(Nc1ccc(F)cc1)Nc1ccc(N2CCOCC2)c2nonc12,"inconclusive: 0.562 µM [activator, partial curve, poor fit]"
5,CCOC(=O)N1CCN(C(=O)C(C)c2ccc([N+](=O)[O-])cc2)CC1 (configuration not stated),"inconclusive: 35.5 µM [inhibitor, single point]"
6,O=C(O)CN1C(c2ccccc2)=Nc2ccc(Br)cc2C1c1ccccc1 (configuration not stated),inactive
7,CCS(=O)(=O)c1oc(-c2ccc(F)cc2)nc1S(=O)(=O)c1ccc(Br)cc1,"inconclusive: 2.51 µM [inhibitor, partial curve, poor fit]"
8,CCOC(=O)c1sc(NC(=O)CSc2nncs2)c(C(=O)OCC)c1C,"inconclusive: 3.98 µM [activator, full curve, poor fit]"
9,CC(C)CNC(=O)c1ccccc1-c1ccccc1C(=O)O,"inconclusive: 0.164 µM [inhibitor, full curve, poor fit]"
10,COc1ccc(OC)c(N2C(=O)CC(Cc3ccc(Cl)cc3)C2=O)c1 (configuration not stated),inactive
11,COC(=O)c1sccc1N/N=C/c1cccc(OC)c1O,"inconclusive: 11.2 µM [inhibitor, partial curve, poor fit]"
12,O=C(OCCN1C(=O)c2cccc3c(N4CCOCC4)ccc(c23)C1=O)c1ccc(Cl)cc1Cl,"inconclusive: 20 µM [inhibitor, partial curve, poor fit]"
13,CC(=O)OCC1OC(COC(C)=O)(c2ccc(C)cc2)C(OC(C)=O)C1OC(C)=O (configuration not stated),"inconclusive: 14.1 µM [activator, single point]"
14,O=C(Nc1ccc(Oc2cccnc2)cc1)c1ccccc1F,"inconclusive: 0.517 µM [activator, full curve, poor fit]"
15,O=C(/C=C/c1ccc(N2CCCCC2)c([N+](=O)[O-])c1)c1ccc(S(=O)(=O)N2CCCC2)cc1,"inconclusive: 0.224 µM [activator, single point]"
16,CN(c1ccccc1)S(=O)(=O)c1ccc2c(c1)oc(=O)n2C,inactive
17,COc1cccc(CN(C(=O)c2cnccn2)C(C(=O)NC2CCCCC2)c2cc(OC)c(OC)c(OC)c2)c1 (configuration not stated),inactive
18,Nc1ccc(N=Nc2ccc(O)cc2)c(N)n1,"inconclusive: 11.2 µM [inhibitor, partial curve, poor fit]"
19,O=C(Nc1nc(COc2ccccc2)cs1)C12CC3CC(CC(C3)C1)C2,inactive
20,COc1ccc(C2N(c3ccccc3)C(=S)N3CCCN23)cc1 (configuration not stated),"inconclusive: 3.55 µM [inhibitor, single point]"
21,O=C1CC(N2CCN(c3ccc(F)cc3)CC2)C(=O)N1Cc1ccccc1 (configuration not stated),"inconclusive: 10 µM [inhibitor, partial curve, poor fit]"

# Reprinted at random: four entries already listed.
row,Compound,Potency
19,O=C(Nc1nc(COc2ccccc2)cs1)C12CC3CC(CC(C3)C1)C2,inactive
12,O=C(OCCN1C(=O)c2cccc3c(N4CCOCC4)ccc(c23)C1=O)c1ccc(Cl)cc1Cl,"inconclusive: 20 µM [inhibitor, partial curve, poor fit]"
4,O=C(Nc1ccc(F)cc1)Nc1ccc(N2CCOCC2)c2nonc12,"inconclusive: 0.562 µM [activator, partial curve, poor fit]"
16,CN(c1ccccc1)S(=O)(=O)c1ccc2c(c1)oc(=O)n2C,inactive

# (more compounds)

row,Compound,Potency
1,Cc1nnc(SC(C)C(=O)Nc2ccc3ccccc3c2)[nH]c1=O (configuration not stated),"inconclusive: 12.6 µM [activator, single point]"
2,Cc1cccc(OCC(=O)Nc2cc(S(=O)(=O)N3CCOCC3)ccc2N2CCCC2)c1C,inactive
3,CCc1cccc(CC)c1NC(=S)NC(C)c1ccccc1 (configuration not stated),inactive
4,O=c1[nH]cnc2c1sc1nc(C(F)F)cc(-c3ccccc3)c12,inactive
5,CC(=O)c1sc(Nc2nc(C)cc(C)n2)nc1C,"inconclusive: 35.5 µM [inhibitor, single point]"
6,NCCCCCC(=O)N/N=C/c1ccc2nccnc2c1,active: 2.82 µM
7,NC(=O)c1ccsc1NC(=O)COC(=O)COc1ccccc1F,"inconclusive: 5.62 µM [activator, single point]"
8,CCn1cc(C(=O)O)c(=O)c2cc(F)c(N3CCN(C(=S)NC(=O)c4ccccc4)CC3)cc21,inactive
9,CN(C)c1ccc(C=c2c3ccccc3n3c2c2ccccc2[n+]3C)cc1,"inconclusive: 4.47 µM [inhibitor, full curve, poor fit]"
10,COc1cc(CNc2ccc(O)cc2)cc(Br)c1OCc1ccccc1F,"inconclusive: 6.31 µM [inhibitor, single point]"
11,COc1ccc(CNC(=O)COC(=O)c2ccc3ccccc3n2)cc1,"inconclusive: 0.501 µM [inhibitor, partial curve, poor fit]"
12,Cc1cccc(NC(=O)CSCC(=O)N2CCN(Cc3ccc4c(c3)OCO4)CC2)c1,"inconclusive: 5.01 µM [activator, single point]"
13,COc1cc(OC)cc(C(=O)Nc2ccc3c(c2)OCCO3)c1,"inconclusive: 794 nM [activator, full curve, poor fit] and inconclusive: 31.6 µM [inhibitor, single point]"
14,CC(C)CCN(C(=O)Nc1ccc(Cl)cc1)C1CCN(C(C)C)CC1,"inconclusive: 35.5 µM [inhibitor, single point]"
15,COc1cc(/C=N/NC(=O)Cn2nc([N+](=O)[O-])cc2C)cc(Br)c1OCc1ccccc1,"inconclusive: 25.1 µM [inhibitor, partial curve, poor fit]"
16,CC1(C)CC(=O)C2=C(C1)Nc1ccccc1S2,inactive
17,Cc1ccc2nc(-c3ccc(NC(=S)NC4CC(C)(C)NC(C)(C)C4)cc3)sc2c1,"inconclusive: 35.5 µM [inhibitor, single point]"
18,CCOc1ccc(C(=O)OC(C)CN2CCN(C)CC2)cc1 (configuration not stated),inactive
19,Cn1c(CSCc2ccc(F)cc2)nnc1SCC(=O)Nc1nccs1,"inconclusive: 16.4 µM [inhibitor, partial curve, poor fit]"
20,CCc1cc(/C(Cc2ccccn2)=N\O)c(O)cc1O,inactive
21,CCCN(CC(=O)Nc1ccc(Cl)cc1Cl)C(=O)/C=C/c1ccco1,"inconclusive: 35.5 µM [inhibitor, single point]"
